One assay has as its target T1, Flag-EYA1 (human) (UniProt Q99502).
T1 sequence: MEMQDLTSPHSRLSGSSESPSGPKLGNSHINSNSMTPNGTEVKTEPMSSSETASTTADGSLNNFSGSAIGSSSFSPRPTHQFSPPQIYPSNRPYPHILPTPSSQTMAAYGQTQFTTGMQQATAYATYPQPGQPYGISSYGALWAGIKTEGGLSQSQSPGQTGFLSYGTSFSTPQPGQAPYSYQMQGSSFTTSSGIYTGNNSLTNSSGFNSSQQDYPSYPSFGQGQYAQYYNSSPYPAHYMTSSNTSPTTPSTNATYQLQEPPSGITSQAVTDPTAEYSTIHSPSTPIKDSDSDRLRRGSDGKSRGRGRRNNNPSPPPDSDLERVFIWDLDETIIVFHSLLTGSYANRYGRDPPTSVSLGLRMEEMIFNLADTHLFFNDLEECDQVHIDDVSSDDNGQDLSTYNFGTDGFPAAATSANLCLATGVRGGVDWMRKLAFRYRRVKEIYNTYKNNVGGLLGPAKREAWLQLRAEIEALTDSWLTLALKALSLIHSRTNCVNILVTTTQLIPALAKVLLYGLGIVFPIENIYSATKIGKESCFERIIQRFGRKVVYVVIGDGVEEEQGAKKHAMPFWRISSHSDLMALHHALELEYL
In words: co-IP; HEK293T cells transiently transfected with Flag-EYA1 or/and HA-BCL2L12; lysates (NP-40 buffer, 4 C) immunoprecipitated with anti-Flag or anti-HA antibodies, immunoblot. In general terms: A western blot detects proteins with antibodies after separation by electrophoresis.

In assay [1] the target is T2, HA-BCL2L12 (UniProt Q9HB09).
T2 sequence: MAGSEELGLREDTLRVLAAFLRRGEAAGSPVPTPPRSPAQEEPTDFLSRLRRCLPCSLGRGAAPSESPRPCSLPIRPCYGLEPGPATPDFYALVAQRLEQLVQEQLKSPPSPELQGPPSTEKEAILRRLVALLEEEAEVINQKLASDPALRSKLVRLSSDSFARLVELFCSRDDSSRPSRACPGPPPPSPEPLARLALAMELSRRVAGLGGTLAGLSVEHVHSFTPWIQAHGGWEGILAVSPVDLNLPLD
In words: co-IP; same assay in U87MG cells transfected with Flag-EYA1 and HA-BCL2L12.

Assay [2] addresses T2, HA-BCL2L12. In words: co-IP; HEK293T cells transiently transfected with Flag-EYA1 or/and HA-BCL2L12; lysates (NP-40 buffer, 4 C) immunoprecipitated with anti-Flag or anti-HA antibodies, immunoblot.
The target of assay [3] is T2, HA-BCL2L12. In words: co-IP; EYA1 truncations (N-terminal domain AA 1-322, C-terminal ED domain AA 323-592) with BCL2L12; cell line, tags and direction of the IP not stated for this panel.

These are yes or no findings as the source states them, for the method shown. In cells and extracts the contact can be indirect. Some entries that bind do so weakly or less than the wild type. Where a sequence is shown, tags or fusion partners need not be part of it.

B1: HA-BCL2L12 (protein, UniProt Q9HB09 1-250)
chain: MAGSEELGLREDTLRVLAAFLRRGEAAGSPVPTPPRSPAQEEPTDFLSRLRRCLPCSLGRGAAPSESPRPCSLPIRPCYGLEPGPATPDFYALVAQRLEQLVQEQLKSPPSPELQGPPSTEKEAILRRLVALLEEEAEVINQKLASDPALRSKLVRLSSDSFARLVELFCSRDDSSRPSRACPGPPPPSPEPLARLALAMELSRRVAGLGGTLAGLSVEHVHSFTPWIQAHGGWEGILAVSPVDLNLPLD
Consider B1, for which, in the assay with Flag-EYA1 (human), the binding entry is given as “binds”.

B2: Flag-EYA1 (enzyme, UniProt Q99502 1-592)
chain: MEMQDLTSPHSRLSGSSESPSGPKLGNSHINSNSMTPNGTEVKTEPMSSSETASTTADGSLNNFSGSAIGSSSFSPRPTHQFSPPQIYPSNRPYPHILPTPSSQTMAAYGQTQFTTGMQQATAYATYPQPGQPYGISSYGALWAGIKTEGGLSQSQSPGQTGFLSYGTSFSTPQPGQAPYSYQMQGSSFTTSSGIYTGNNSLTNSSGFNSSQQDYPSYPSFGQGQYAQYYNSSPYPAHYMTSSNTSPTTPSTNATYQLQEPPSGITSQAVTDPTAEYSTIHSPSTPIKDSDSDRLRRGSDGKSRGRGRRNNNPSPPPDSDLERVFIWDLDETIIVFHSLLTGSYANRYGRDPPTSVSLGLRMEEMIFNLADTHLFFNDLEECDQVHIDDVSSDDNGQDLSTYNFGTDGFPAAATSANLCLATGVRGGVDWMRKLAFRYRRVKEIYNTYKNNVGGLLGPAKREAWLQLRAEIEALTDSWLTLALKALSLIHSRTNCVNILVTTTQLIPALAKVLLYGLGIVFPIENIYSATKIGKESCFERIIQRFGRKVVYVVIGDGVEEEQGAKKHAMPFWRISSHSDLMALHHALELEYL
B2: the binding result in the assay with HA-BCL2L12 [1] and in the assay with HA-BCL2L12 [2] was “binds” in each case.

B3: EYA1 C-terminal ED domain (AA 323-592) (domain or fragment, UniProt Q99502 323-592)
chain: RVFIWDLDETIIVFHSLLTGSYANRYGRDPPTSVSLGLRMEEMIFNLADTHLFFNDLEECDQVHIDDVSSDDNGQDLSTYNFGTDGFPAAATSANLCLATGVRGGVDWMRKLAFRYRRVKEIYNTYKNNVGGLLGPAKREAWLQLRAEIEALTDSWLTLALKALSLIHSRTNCVNILVTTTQLIPALAKVLLYGLGIVFPIENIYSATKIGKESCFERIIQRFGRKVVYVVIGDGVEEEQGAKKHAMPFWRISSHSDLMALHHALELEYL
In the case of B3, the binding entry with HA-BCL2L12 [3] is reported as “binds”.

Source of the values: publication PMC11781168.
